Experimental data: PubChem BioAssay AID1259308 (NCATS, 2017)

Test: 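Knock-downs that increase output of a recombinant reporter protein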 (primary screen)
Cells: human HEK293 embryonic kidney cells stably expressing firefly luciferase (HEK-CMV-Luc2-Hygro)
Knock-down reagent: single siRNA against human genes, 0.8 pmol siRNA per well
Time to read-out: 72 h
Detection: 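Reporter luminescence and viable-cell signal on separate replicate plates, given as percent of non-targeting control and median/MAD z-scores, plus per-cell luciferase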
Direction: total luciferase, z-score and total luciferase, % of control: higher = more reporter protein produced; luciferase per cell, z-score: higher = more reporter output per viable cell; viable cells, % of control: higher = more viable cells
Rule for the call: 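Active when the median/MAD z-score for overall luciferase is greater than 3; a gene was taken forward for validation with new siRNAs if at least two of its three siRNAs passed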
Calls: active = raised luciferase; inactive = no rise
In all, the deposit lists about 59,000 reagents; shown is a part drawn at random. About 1,510 of them (2.6%) count as active. 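Calls use total luciferase alone and ignore viability, so some active siRNAs may act by altering cell number.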 The numbers tell different reagents against one gene apart.

The opening 6 entries, to show the layout:
Gene | reagent | total luciferase, z-score | total luciferase, % of control | luciferase per cell, z-score | viable cells, % of control | call
LCE4A (GeneID 199834) | 1 | 0.881 | 99.4 | 0.541 | 96.3 | inactive
LCE4A (GeneID 199834) | 2 | 0.406 | 90 | -0.0858 | 103 | inactive
LCE4A (GeneID 199834) | 3 | -0.94 | 63.2 | -0.608 | 82.9 | inactive
KLHDC10 (GeneID 23008) | 1 | -0.114 | 79.6 | -0.255 | 95.2 | inactive
KLHDC10 (GeneID 23008) | 2 | 0.785 | 97.5 | 0.476 | 96.1 | inactive
KLHDC10 (GeneID 23008) | 3 | 1.57 | 113 | 2.12 | 72.3 | inactive

Main list, from the start:
Gene | reagent | total luciferase, z-score | total luciferase, % of control | luciferase per cell, z-score | viable cells, % of control | call
LCE4A (GeneID 199834) | 1 | 0.881 | 99.4 | 0.541 | 96.3 | inactive
LCE4A (GeneID 199834) | 2 | 0.406 | 90 | -0.0858 | 103 | inactive
LCE4A (GeneID 199834) | 3 | -0.94 | 63.2 | -0.608 | 82.9 | inactive
KLHDC10 (GeneID 23008) | 1 | -0.114 | 79.6 | -0.255 | 95.2 | inactive
KLHDC10 (GeneID 23008) | 2 | 0.785 | 97.5 | 0.476 | 96.1 | inactive
KLHDC10 (GeneID 23008) | 3 | 1.57 | 113 | 2.12 | 72.3 | inactive
OR1D2 (GeneID 4991) | 1 | 0.0131 | 82.1 | -0.496 | 105 | inactive
OR1D2 (GeneID 4991) | 2 | 1.55 | 113 | 1.16 | 92.8 | inactive
OR1D2 (GeneID 4991) | 3 | 1.78 | 117 | 1.5 | 88.4 | inactive
TP63 (GeneID 8626) | 1 | 0.0775 | 83.4 | 0.0788 | 91.3 | inactive
TP63 (GeneID 8626) | 2 | 2.24 | 126 | 1.99 | 83.6 | inactive
TP63 (GeneID 8626) | 3 | -0.0485 | 80.9 | 0.0874 | 88.4 | inactive
MTMR6 (GeneID 9107) | 1 | 2.97 | 141 | 3.8 | 57.9 | inactive
MTMR6 (GeneID 9107) | 2 | 0.286 | 87.6 | -0.0742 | 99.8 | inactive
MTMR6 (GeneID 9107) | 3 | -1.58 | 50.4 | -0.831 | 70.1 | inactive
IGLON5 (GeneID 402665) | 1 | 0.226 | 86.4 | 0.597 | 82.5 | inactive
IGLON5 (GeneID 402665) | 2 | -0.951 | 63 | -0.694 | 84.5 | inactive
IGLON5 (GeneID 402665) | 3 | -0.77 | 66.6 | -1.21 | 102 | inactive
MROH7 (GeneID 374977) | 1 | 0.195 | 85.8 | 0.00475 | 95.7 | inactive
MROH7 (GeneID 374977) | 2 | -0.921 | 63.6 | -0.6 | 83.2 | inactive
MROH7 (GeneID 374977) | 3 | -0.393 | 74.1 | 0.0552 | 81.6 | inactive
SLC44A4 (GeneID 80736) | 1 | 1.52 | 112 | 0.323 | 115 | inactive
SLC44A4 (GeneID 80736) | 2 | 0.536 | 92.5 | 0.65 | 87.1 | inactive
SLC44A4 (GeneID 80736) | 3 | -1.62 | 49.6 | -2.16 | 97.9 | inactive
SHBG (GeneID 6462) | 1 | 2.81 | 138 | 2.1 | 88.5 | inactive
SHBG (GeneID 6462) | 2 | -0.546 | 71 | -1.06 | 105 | inactive
SHBG (GeneID 6462) | 3 | 1.81 | 118 | 2.15 | 74.8 | inactive
MS4A5 (GeneID 64232) | 1 | -1.17 | 58.7 | -1.35 | 93.4 | inactive
MS4A5 (GeneID 64232) | 2 | 0.728 | 96.4 | 0.859 | 85.9 | inactive
MS4A5 (GeneID 64232) | 3 | 0.582 | 93.5 | 0.339 | 95.5 | inactive
ZDHHC5 (GeneID 25921) | 1 | -1.68 | 48.5 | -2.18 | 96.2 | inactive
ZDHHC5 (GeneID 25921) | 2 | -1.97 | 42.8 | -2.54 | 93.2 | inactive
ZDHHC5 (GeneID 25921) | 3 | 0.45 | 90.8 | 1.06 | 76.9 | inactive
CHST13 (GeneID 166012) | 1 | 0.486 | 91.6 | -0.197 | 108 | inactive
CHST13 (GeneID 166012) | 2 | -0.158 | 78.7 | 0.642 | 74.3 | inactive
CHST13 (GeneID 166012) | 3 | -0.645 | 69.1 | -0.843 | 96.4 | inactive
MYH6 (GeneID 4624) | 1 | 0.427 | 90.4 | -0.105 | 104 | inactive
MYH6 (GeneID 4624) | 2 | -0.684 | 68.3 | 0.171 | 72.9 | inactive
MYH6 (GeneID 4624) | 3 | -0.586 | 70.2 | -0.619 | 92.4 | inactive
WWOX (GeneID 51741) | 1 | -0.735 | 67.3 | -0.19 | 79 | inactive
WWOX (GeneID 51741) | 2 | 4.35 | 168 | 3.05 | 84.4 | active
WWOX (GeneID 51741) | 3 | -0.354 | 74.9 | 0.127 | 80.9 | inactive
STX16 (GeneID 8675) | 1 | 3.42 | 150 | 4.35 | 53.2 | active
STX16 (GeneID 8675) | 2 | -0.744 | 67.1 | -0.898 | 95 | inactive
STX16 (GeneID 8675) | 3 | 2.25 | 127 | 1.95 | 84.7 | inactive
PDHX (GeneID 8050) | 1 | -0.743 | 67.1 | -0.357 | 82.4 | inactive
PDHX (GeneID 8050) | 2 | 1.05 | 103 | 0.492 | 101 | inactive
PDHX (GeneID 8050) | 3 | -0.418 | 73.6 | -0.782 | 101 | inactive
SCN1B (GeneID 6324) | 1 | -0.734 | 67.3 | -0.713 | 90.7 | inactive
SCN1B (GeneID 6324) | 2 | -0.57 | 70.6 | -0.707 | 95 | inactive
SCN1B (GeneID 6324) | 3 | 1.27 | 107 | 1.53 | 80 | inactive
PRDM4 (GeneID 11108) | 1 | -1.59 | 50.3 | -1.62 | 86.2 | inactive
PRDM4 (GeneID 11108) | 2 | 0.158 | 85 | 0.482 | 83.7 | inactive
PRDM4 (GeneID 11108) | 3 | -0.727 | 67.4 | 0.0141 | 75.1 | inactive
APRG1 (GeneID 339883) | 1 | -0.372 | 74.5 | 0.469 | 73.6 | inactive
APRG1 (GeneID 339883) | 2 | -1.08 | 60.4 | -0.886 | 85.2 | inactive
APRG1 (GeneID 339883) | 3 | 0.452 | 90.9 | -0.326 | 111 | inactive
